The text below walks through data of article PMC12285200.

Results are given in words; binding and its absence hold for the method and conditions named. Binding seen in cells or lysates may run through a third protein. Binding can be weak; no strength is given. Sequences can lack the tags named with a protein.

The target of this test is T1, GST-tagged ZC3H15 full length (human) (UniProt Q8WU90).
T1 sequence: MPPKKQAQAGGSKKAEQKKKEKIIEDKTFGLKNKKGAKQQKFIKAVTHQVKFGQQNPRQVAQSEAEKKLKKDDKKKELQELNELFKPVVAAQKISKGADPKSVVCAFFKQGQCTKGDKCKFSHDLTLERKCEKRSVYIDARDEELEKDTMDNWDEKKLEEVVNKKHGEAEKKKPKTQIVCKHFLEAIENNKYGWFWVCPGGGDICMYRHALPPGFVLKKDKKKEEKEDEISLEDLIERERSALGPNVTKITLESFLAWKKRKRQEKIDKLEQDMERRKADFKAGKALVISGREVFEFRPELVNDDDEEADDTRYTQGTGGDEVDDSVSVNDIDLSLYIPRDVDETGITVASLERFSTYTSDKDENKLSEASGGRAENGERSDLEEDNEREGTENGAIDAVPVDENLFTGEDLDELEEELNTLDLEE
The experiment in a line: pull-down; GST pull-down from HEK293T cells co-expressing a FLAG-tagged and a GST-tagged protein; NETN lysis buffer, beads 4 °C 2 to 4 h, three washes; western blot.

On to “FLAG-tagged TERT TEN domain (truncation mutant) (human) (domain or fragment)”, for which the binding entry is given as “binds”.
